PubChem BioAssay AID652259 | Drosophila RNAi Screening Center – 2013
In all, the deposit lists about 22,000 reagents; shown is an unselected part of those that have a named target and a result. Of all reagents, 233 (1.1%) got an active call. 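Light values are raw, unnormalised plate reads; the ratio scores behind the reporter calls were not deposited.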 Reagent sequences are not shown. Not stated in the record: the amount of reagent, the time to read-out, the dose of the treatment.

Aim: 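Identify new Wingless signalling regulators in fly cells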 (primary screen)
Cell system: Drosophila clone 8 imaginal disc epithelial cells
Reagents: long dsRNA against Drosophila genes
Conditions: pathway stimulated by co-transfected Wingless expression plasmid
Detection: 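Firefly luciferase from a tcf-site Wingless reporter, measured alongside co-transfected Renilla luciferase that tracks transfection; pathway stimulated by a Wingless plasmid; the firefly-to-Renilla ratio is not deposited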
Scale: firefly reporter light: higher = more Wg reporter light, before normalisation; Renilla control light: higher = more transfected or surviving cells
Rule for the call: 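Strong candidates differ from their plate mean by at least two out of four per-plate statistical tests; weak candidates meet just one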
Meaning of the calls: active = candidate regulator (raises or lowers reporter); inactive = not a candidate

gene knocked down	dsRNA	reporter change call, replicate 1	firefly reporter light, replicate 1	firefly reporter light, replicate 2	Renilla control light, replicate 1	Renilla control light, replicate 2	activity call
Ank	DRSC17127		1972	3816	796	1577	inactive
CG30002	DRSC05182		13707		7828		inactive
CG12374	DRSC06143		7608		2300		inactive
Gos28	DRSC16292		21345		4987		inactive
Gos28	DRSC22859		6.81e5	6.73e5	2.54e5	3.00e5	inactive
CG10674	DRSC09775		2101	9744	1424	4101	inactive
CG6901	DRSC16129		19367		3110		inactive
EMC4	DRSC11638		10704		3394		inactive
DCX-EMAP	DRSC10012		4944		2244		inactive
DCX-EMAP	DRSC10013	Wg reporter activity raised	6978		1194		active
CG13074	DRSC09957		8425		2663		inactive
CG13220	DRSC06342		7346		2997		inactive
CG12945	DRSC14573		17715		4352		inactive
CG12848	DRSC04128		2836	10246	843	3274	inactive
ss	DRSC17069		15306		3849		inactive
CG14070	DRSC02373		2694	7888	1129	3653	inactive
CG15093	DRSC06522		20032		6073		inactive
Rpn3	DRSC03318		1604	4968	487	2195	inactive
CG7737	DRSC07033		11946		3536		inactive
COX6AL	DRSC21454		5.97e5	5.83e5	2.66e5	2.24e5	inactive
Trxr1	DRSC18668		3200	6019	1243	2000	inactive
Trxr1	DRSC22293		7.20e5	6.99e5	3.56e5	3.45e5	inactive
CG4467	DRSC15585		21045		18186		inactive
CG5404	DRSC15793		12261	8.77e5	4880	4.79e5	inactive
Tet	DRSC08006		5312		1200		inactive
Tet	DRSC08550		19760		4706		inactive
Tet	DRSC08646		5273		1953		inactive

Entries above whose gene name begins with D or d (2):
gene knocked down	dsRNA	reporter change call, replicate 1	firefly reporter light, replicate 1	firefly reporter light, replicate 2	Renilla control light, replicate 1	Renilla control light, replicate 2	activity call
DCX-EMAP	DRSC10012		4944		2244		inactive
DCX-EMAP	DRSC10013	Wg reporter activity raised	6978		1194		active
